What all share (assay type): cell-based
Test [1] has as its target T1, RNA polymerase II (Mus musculus) (UniProt P08775+Q8CFI7+P97760+A0A3Q4L2S8+Q80UW8+P61219+P62488+Q923G2+P60898+O08740+Q63871+P62876). Kind of test: Inhibition of RNA polymerase II in mouse B16-F1 migrating cells assessed as fold change in Ctxn1-RNA stability at 0.1 mM measured by ChIP-seq analysis relative to control cells.
Test [2] has as its target T1, RNA polymerase II (Mus musculus). Description: Inhibition of RNA polymerase II in mouse B16-F1 migrating cells assessed as fold change in B3galt1-RNA stability at 0.1 mM measured by ChIP-seq analysis relative to control cells.
Test [3] shares this target. Kind of test: Inhibition of RNA polymerase II in mouse B16-F1 migrating cells assessed as fold change in Prkar2b-RNA stability at 0.1 mM measured by ChIP-seq analysis relative to control cells.
Test [4] shares this target. Description: Inhibition of RNA polymerase II in mouse B16-F1 migrating cells assessed as fold change in Aifm1-RNA stability at 0.1 mM measured by ChIP-seq analysis relative to control cells.
Test [5] has the same target. Description: Inhibition of RNA polymerase II in mouse B16-F1 migrating cells assessed as fold change in Itga1-RNA stability at 0.1 mM measured by ChIP-seq analysis relative to control cells.
The target is the same in test [6]. Description: Inhibition of RNA polymerase II in mouse B16-F1 migrating cells assessed as fold change in Cib1-RNA stability at 0.1 mM measured by ChIP-seq analysis relative to control cells.
Test [7] shares this target. Kind of test: Inhibition of RNA polymerase II in mouse B16-F1 migrating cells assessed as fold change in Mat2a-RNA stability at 0.1 mM measured by ChIP-seq analysis relative to control cells.
Test [8] has the same target. Kind of test: Inhibition of RNA polymerase II in mouse B16-F1 migrating cells assessed as fold change in Gorab-RNA stability at 0.1 mM measured by ChIP-seq analysis relative to control cells.
For test [9] the target is unchanged. Description: Inhibition of RNA polymerase II in mouse B16-F1 migrating cells assessed as fold change in Tpgs1-RNA stability at 0.1 mM measured by ChIP-seq analysis relative to control cells.
Test [10] has the same target. Kind of test: Inhibition of RNA polymerase II in mouse B16-F1 migrating cells assessed as fold change in Cdkn2aip-RNA stability at 0.1 mM measured by ChIP-seq analysis relative to control cells.
Test [11] has the same target. Description: Inhibition of RNA polymerase II in mouse B16-F1 migrating cells assessed as fold change in Bmi1-RNA stability at 0.1 mM measured by ChIP-seq analysis relative to control cells.
Test [12] shares this target. Kind of test: Inhibition of RNA polymerase II in mouse B16-F1 migrating cells assessed as fold change in Fam174b-RNA stability at 0.1 mM measured by ChIP-seq analysis relative to control cells.
Test [13] has the same target. Description: Inhibition of RNA polymerase II in mouse B16-F1 migrating cells assessed as fold change in Cdk7-RNA stability at 0.1 mM measured by ChIP-seq analysis relative to control cells.
Test [14] shares this target. Description: Inhibition of RNA polymerase II in mouse B16-F1 migrating cells assessed as fold change in Pgam1-RNA stability at 0.1 mM measured by ChIP-seq analysis relative to control cells.
For test [15] the target is unchanged. Description: Inhibition of RNA polymerase II in mouse B16-F1 migrating cells assessed as fold change in Ube3a-RNA stability at 0.1 mM measured by ChIP-seq analysis relative to control cells.
The target is the same in test [16]. Kind of test: Inhibition of RNA polymerase II in mouse B16-F1 migrating cells assessed as fold change in Ctdspl2-RNA stability at 0.1 mM measured by ChIP-seq analysis relative to control cells.
Test [17] has the same target. Description: Inhibition of RNA polymerase II in mouse B16-F1 migrating cells assessed as fold change in Ttc14-RNA stability at 0.1 mM measured by ChIP-seq analysis relative to control cells.
Test [18] has the same target. Description: Inhibition of RNA polymerase II in mouse B16-F1 migrating cells assessed as fold change in Dnal4-RNA stability at 0.1 mM measured by ChIP-seq analysis relative to control cells.
Test [19] has the same target. Description: Inhibition of RNA polymerase II in mouse B16-F1 migrating cells assessed as fold change in Kdelc2-RNA stability at 0.1 mM measured by ChIP-seq analysis relative to control cells.
For test [20], the target named is Histone-lysine N-methyltransferase EZH2 (Mus musculus) (UniProt Q61188). Description: Inhibition of EZH2 in mouse B16-F1 migrating cells assessed as fold change in H3K27me3-buffered regulated Knl1-mRNA expression at 3 uM measured by ChIP-seq analysis relative to control cells.
Test [21] shares this target. Kind of test: Inhibition of EZH2 in mouse B16-F1 migrating cells assessed as fold change in H3K27me3-buffered regulated Ssfa2-mRNA expression at 3 uM measured by ChIP-seq analysis relative to control cells.
Test [22] shares this target. Description: Inhibition of EZH2 in mouse B16-F1 migrating cells assessed as fold change in H3K27me3-buffered regulated Fancm-mRNA expression at 3 uM measured by ChIP-seq analysis relative to control cells.
For test [23] the target is unchanged. Description: Inhibition of EZH2 in mouse B16-F1 migrating cells assessed as fold change in H3K27me3-buffered regulated Lrfn1-mRNA expression at 3 uM measured by ChIP-seq analysis relative to control cells.
Test [24] has the same target. Kind of test: Inhibition of EZH2 in mouse B16-F1 migrating cells assessed as fold change in H3K27me3-dependent regulated Klf4-mRNA expression at 3 uM measured by ChIP-seq analysis relative to control cells.
Test [25] has the same target. Kind of test: Inhibition of EZH2 in mouse B16-F1 migrating cells assessed as fold change in H3K27me3-buffered regulated Eya1-mRNA expression at 3 uM measured by ChIP-seq analysis relative to control cells.
Test [26] has the same target. Kind of test: Inhibition of EZH2 in mouse B16-F1 migrating cells assessed as fold change in H3K27me3-buffered regulated Igf2bp1-mRNA expression at 3 uM measured by ChIP-seq analysis relative to control cells.
Test [27] shares this target. Description: Inhibition of EZH2 in mouse B16-F1 migrating cells assessed as fold change in H3K27me3-dependent regulated Rhob-mRNA expression at 3 uM measured by ChIP-seq analysis relative to control cells.
Test [28] shares this target. Description: Inhibition of EZH2 in mouse B16-F1 migrating cells assessed as fold change in H3K27me3-buffered regulated Lgr6-mRNA expression at 3 uM measured by ChIP-seq analysis relative to control cells.
For test [29] the target is unchanged. Description: Inhibition of EZH2 in mouse B16-F1 migrating cells assessed as fold change in H3K27me3-buffered regulated Slc7a11-mRNA expression at 3 uM measured by ChIP-seq analysis relative to control cells.
Test [30] has the same target. Kind of test: Inhibition of EZH2 in mouse B16-F1 migrating cells assessed as fold change in H3K27me3-buffered regulated Mplkip-mRNA expression at 3 uM measured by ChIP-seq analysis relative to control cells.

The chains behind the UniProt entries cited, without tags or fusion partners.
UniProt Q61188, whole entry: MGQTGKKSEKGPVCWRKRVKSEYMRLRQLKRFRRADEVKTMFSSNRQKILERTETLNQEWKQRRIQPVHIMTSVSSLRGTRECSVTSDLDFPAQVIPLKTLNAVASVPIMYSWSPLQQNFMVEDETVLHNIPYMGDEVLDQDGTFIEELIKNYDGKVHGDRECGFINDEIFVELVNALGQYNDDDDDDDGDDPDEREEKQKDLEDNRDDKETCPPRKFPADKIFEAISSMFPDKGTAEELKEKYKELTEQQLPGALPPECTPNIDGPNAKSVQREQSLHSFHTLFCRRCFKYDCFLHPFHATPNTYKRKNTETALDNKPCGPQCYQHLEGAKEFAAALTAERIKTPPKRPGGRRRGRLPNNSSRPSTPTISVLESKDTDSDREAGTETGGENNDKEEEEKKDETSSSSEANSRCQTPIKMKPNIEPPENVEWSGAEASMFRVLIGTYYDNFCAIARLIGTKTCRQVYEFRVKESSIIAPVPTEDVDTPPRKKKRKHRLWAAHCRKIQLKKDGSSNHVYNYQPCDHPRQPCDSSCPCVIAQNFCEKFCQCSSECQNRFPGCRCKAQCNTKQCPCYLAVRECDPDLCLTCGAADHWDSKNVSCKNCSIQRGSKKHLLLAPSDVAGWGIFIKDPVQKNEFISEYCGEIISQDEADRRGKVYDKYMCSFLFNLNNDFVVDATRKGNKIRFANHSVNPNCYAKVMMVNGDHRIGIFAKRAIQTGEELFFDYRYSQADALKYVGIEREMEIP

The source of these data is ChEMBL document CHEMBL5674883, “The Heterochromatin Landscape in Migrating Cells and the Importance of H3K27me3 for Associated Transcriptome Alterations” (Cells, 2018).

Molecules are shown by their SMILES. Further values from the same series stand in other lists.

Regarding `OC[C@H]1O[C@@H](n2cnc3cc(Cl)c(Cl)cc32)[C@H](O)[C@@H]1O`, the log2FC in [1] was 0.72; in [2], -0.9; in test [3], -0.57; in test [4] it was -0.44; in test [5], -0.64; in test [6], 0.47. The log2FC was -0.49 in test [7]; -0.99 in test [8]; 0.59 in test [9]; -1.07 in [10]; -0.6 in [11]; 0.49 in test [12]. Further, the log2FC in test [13] was -0.54; in [14], 0.48; in test [15], -0.86; in test [16] it was -0.54; in test [17] it was -0.57; in test [18] it was 0.61. In [19], the log2FC was -0.69.
For the compound `CCCc1cc(C)[nH]c(=O)c1CNC(=O)c1cc(-c2ccnc(N3CCN(C)CC3)c2)cc2c1cnn2C(C)C`, the log2FC in test [20] was -0.49; in [21], -0.59; in test [22] it was -0.4; in test [23], -0.72; in test [24], 0.23; in test [25], -0.4. The log2FC was -0.51 in test [26]; 0.33 in test [27]; -0.78 in test [28]; 0.44 in test [29]; -0.5 in test [30].
